# These are yes or no findings as the source states them, for the method shown. Binding seen in cells or lysates may run through a third protein. Here binding means that the protein was enriched with, or labelled near, the bait; the list need not be complete. Where a sequence is shown, tags or fusion partners need not be part of it.
# Protein sequences, listed by entry. Tags and fused reporters are not part of them.
# UniProt Q99873: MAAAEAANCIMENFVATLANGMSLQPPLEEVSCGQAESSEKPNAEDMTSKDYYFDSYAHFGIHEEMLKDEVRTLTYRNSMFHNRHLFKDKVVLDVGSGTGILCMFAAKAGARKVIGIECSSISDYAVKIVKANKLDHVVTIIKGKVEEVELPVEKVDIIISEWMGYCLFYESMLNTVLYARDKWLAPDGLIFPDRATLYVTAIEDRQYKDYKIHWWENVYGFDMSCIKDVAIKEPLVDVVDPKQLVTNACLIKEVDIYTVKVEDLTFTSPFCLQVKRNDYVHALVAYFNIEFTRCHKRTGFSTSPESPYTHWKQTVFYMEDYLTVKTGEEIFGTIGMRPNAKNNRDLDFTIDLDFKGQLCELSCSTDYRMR
# Target: T1, FLAG-PHGDH WT (phosphoglycerate dehydrogenase) (human) (UniProt O43175)
# T1 sequence: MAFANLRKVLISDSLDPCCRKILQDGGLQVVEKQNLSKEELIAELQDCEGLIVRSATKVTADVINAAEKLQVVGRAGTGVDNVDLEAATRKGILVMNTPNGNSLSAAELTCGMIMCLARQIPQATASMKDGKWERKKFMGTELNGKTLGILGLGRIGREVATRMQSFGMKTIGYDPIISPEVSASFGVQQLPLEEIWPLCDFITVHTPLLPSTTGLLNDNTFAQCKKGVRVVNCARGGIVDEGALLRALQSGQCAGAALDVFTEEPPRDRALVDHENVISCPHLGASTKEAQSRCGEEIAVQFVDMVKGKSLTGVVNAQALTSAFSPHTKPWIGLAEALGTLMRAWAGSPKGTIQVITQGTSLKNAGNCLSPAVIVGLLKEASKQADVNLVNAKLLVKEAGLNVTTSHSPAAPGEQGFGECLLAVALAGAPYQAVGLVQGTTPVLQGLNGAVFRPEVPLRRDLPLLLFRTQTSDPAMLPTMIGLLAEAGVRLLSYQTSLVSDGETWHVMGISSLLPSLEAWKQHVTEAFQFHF
# Assay: affinity purification with mass spectrometry; HEK293T cells stably expressing FLAG-PHGDH lysed, IP with FLAG beads, SDS-PAGE bands digested with trypsin, LC-MS/MS
substance,measurement,value
endogenous PRMT1 (protein arginine methyltransferase 1) (from UniProt Q99873 1-371) (enzyme),binding,binds

# — PMC9950448
